From publication doi:10.1101/2022.11.10.516022
No constants are given. Whether binding was seen depends on the method and setting. In cells and extracts the contact can be indirect. Binding can be weak; no strength is given.

B1: in vitro translated Plin1 (protein, UniProt Q8CGN5 1-517)
chain: MSMNKGPTLLDGDLPEQENVLQRVLQLPVVSGTCECFQKTYNSTKEAHPLVASVCNAYEKGVQGASNLAAWSMEPVVRRLSTQFTAANELACRGLDHLEEKIPALQYPPEKIASELKGTISTRLRSARNSISVPIASTSDKVLGATLAGCELALGMAKETAEYAANTRVGRLASGGADLALGSIEKVVEFLLPPDKESAPSSGRQRTQKAPKAKPSLVRRVSTLANTLSRHTMQTTAWALKQGHSLAMWIPGVAPLSSLAQWGASAAMQVVSRRQSEVRVPWLHNLAASQDESHDDQTDTEGEETDDEEEEEESEAEENVLREVTALPNPRGLLGGVVHTVQNTLRNTISAVTWAPAAVLGTVGRILHLTPAQAVSSTKGRAMSLSDALKGVTDNVVDTVVHYVPLPRLSLMEPESEFRDIDNPSAEAERKGSGARPASPESTPRPGQPRGSLRSVRGLSAPSCPGLDDKTEASARPGFLAMPREKPARRVSDSFFRPSVMEPILGRAQYSQLRKKS
modifications: 35S labeled methionine
B2: in vitro translated ATGL (enzyme, UniProt Q8BJ56 1-486)
chain: MFPRETKWNISFAGCGFLGVYHIGVASCLREHAPFLVANATHIYGASAGALTATALVTGACLGEAGANIIEVSKEARKRFLGPLHPSFNLVKTIRGCLLKTLPADCHERANGRLGISLTRVSDGENVIISHFSSKDELIQANVCSTFIPVYCGLIPPTLQGVRYVDGGISDNLPLYELKNTITVSPFSGESDICPQDSSTNIHELRVTNTSIQFNLRNLYRLSKALFPPEPMVLREMCKQGYRDGLRFLRRNGLLNQPNPLLALPPVVPQEEDAEEAAVVEERAGEEDQLQPYRKDRILEHLPARLNEALLEACVEPKDLMTTLSNMLPVRLATAMMVPYTLPLESAVSFTIRLLEWLPDVPEDIRWMKEQTGSICQYLVMRAKRKLGDHLPSRLSEQVELRRAQSLPSVPLSCATYSEALPNWVRNNLSLGDALAKWEECQRQLLLGLFCTNVAFPPDALRMRAPASPTAADPATPQDPPGLPPC
modifications: 35S labeled methionine
B3: in vitro translated HSL (enzyme, UniProt P54310 1-759)
chain: MDLRTMTQSLVTLAEDNMAFFSSQGPGETARRLSNVFAGVREQALGLEPTLGQLLGVAHHFDLDTETPANGYRSLVHTARCCLAHLLHKSRYVASNRKSIFFRASHNLAELEAYLAALTQLRAMAYYAQRLLTINRPGVLFFEGDEGLTADFLQEYVTLHKGCFYGRCLGFQFTPAIRPFLQTLSIGLVSFGEHYKRNETGLSVTASSLFTGGRFAIDPELRGAEFERIIQNLDVHFWKAFWNITEIEVLSSLANMASTTVRVSRLLSLPPEAFEMPLTSDPRLTVTISPPLAHTGPAPVLARLISYDLREGQDSKVLNSLAKSEGPRLELRPRPHQAPRSRALVVHIHGGGFVAQTSKSHEPYLKNWAQELGVPIFSIDYSLAPEAPFPRALEECFFAYCWAVKHCDLLGSTGERICLAGDSAGGNLCITVSLRAAAYGVRVPDGIMAAYPVTTLQSSASPSRLLSLMDPLLPLSVLSKCVSAYSGTEAEDHFDSDQKALGVMGLVQRDTSLFLRDLRLGASSWLNSFLELSGRKPQKTTSPTAESVRPTESMRRSVSEAALAQPEGLLGTDTLKKLTIKDLSNSEPSDSPEMSQSMETLGPSTPSDVNFFLRPGNSQEEAEAKDEVRPMDGVPRVRAAFPEGFHPRRSSQGVLHMPLYTSPIVKNPFMSPLLAPDSMLKTLPPVHLVACALDPMLDDSVMFARRLRDLGQPVTLKVVEDLPHGFLSLAALCRETRQATEFCVQRIRLILTPPAAPLN
modifications: 35S labeled methionine

Biological target: ApoL6-GST (GST-tagged full-length ApoL6) (mouse)
Experiment: pull-down

| Binder | binding |
| --- | --- |
| B1 | binds |
| B2 | no binding |
| B3 | no binding |
